# Reference: article doi:10.1101/122853
# T1: FLAG-tagged TMEM18 (UniProt Q3TUD9)
# T1 sequence: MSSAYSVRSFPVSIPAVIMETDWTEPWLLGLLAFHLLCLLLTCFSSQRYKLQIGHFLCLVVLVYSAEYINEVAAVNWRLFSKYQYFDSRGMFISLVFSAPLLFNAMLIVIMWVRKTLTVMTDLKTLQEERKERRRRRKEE
# B1: NUP35/53 (endogenous, HEK293) (protein, UniProt Q8NFH5 1-326)
# chain: MAAFAVEPQGPALGSEPMMLGSPTSPKPGVNAQFLPGFLMGDLPAPVTPQPRSISGPSVGVMEMRSPLLAGGSPPQPVVPAHKDKSGAPPVRSIYDDISSPGLGSTPLTSRRQPNISVMQSPLVGVTSTPGTGQSMFSPASIGQPRKTTLSPAQLDPFYTQGDSLTSEDHLDDSWVTVFGFPQASASYILLQFAQYGNILKHVMSNTGNWMHIRYQSKLQARKALSKDGRIFGESIMIGVKPCIDKSVMESSDRCALSSPSLAFTPPIKTLGTPTQPGSTPRISTMRPLATAYKASTSDYQVISDRQTPKKDESLVSKAMEYMFGW
# B2: NDC1 (endogenous, HEK293) (protein, UniProt Q9BTX1 1-674)
# chain: MATAVSRPCAGRSRDILWRVLGWRIVASIVWSVLFLPICTTVFIIFSRIDLFHPIQWLSDSFSDLYSSYVIFYFLLLSVVIIIISIFNVEFYAVVPSIPCSRLALIGKIIHPQQLMHSFIHAAMGMVMAWCAAVITQGQYSFLVVPCTGTNSFGSPAAQTCLNEYHLFFLLTGAFMGYSYSLLYFVNNMNYLPFPIIQQYKFLRFRRSLLLLVKHSCVESLFLVRNFCILYYFLGYIPKAWISTAMNLHIDEQVHRPLDTVSGLLNLSLLYHVWLCGVFLLTTWYVSWILFKIYATEAHVFPVQPPFAEGSDECLPKVLNSNPPPIIKYLALQDLMLLSQYSPSRRQEVFSLSQPGGHPHNWTAISRECLNLLNGMTQKLILYQEAAATNGRVSSSYPVEPKKLNSPEETAFQTPKSSQMPRPSVPPLVKTSLFSSKLSTPDVVSPFGTPFGSSVMNRMAGIFDVNTCYGSPQSPQLIRRGPRLWTSASDQQMTEFSNPSPSTSISAEGKTMRQPSVIYSWIQNKREQIKNFLSKRVLIMYFFSKHPEASIQAVFSDAQMHIWALEGLSHLVAASFTEDRFGVVQTTLPAILNTLLTLQEAVDKYFKLPHASSKPPRISGSLVDTSYKTLRFAFRASLKTAIYRITTTFGEHLNAVQASAEHQKRLQQFLEFKE
# B3: AAAS (endogenous, HEK293) (protein, UniProt Q9NRG9 1-546)
# chain: MCSLGLFPPPPPRGQVTLYEHNNELVTGSSYESPPPDFRGQWINLPVLQLTKDPLKTPGRLDHGTRTAFIHHREQVWKRCINIWRDVGLFGVLNEIANSEEEVFEWVKTASGWALALCRWASSLHGSLFPHLSLRSEDLIAEFAQVTNWSSCCLRVFAWHPHTNKFAVALLDDSVRVYNASSTIVPSLKHRLQRNVASLAWKPLSASVLAVACQSCILIWTLDPTSLSTRPSSGCAQVLSHPGHTPVTSLAWAPSGGRLLSASPVDAAIRVWDVSTETCVPLPWFRGGGVTNLLWSPDGSKILATTPSAVFRVWEAQMWTCERWPTLSGRCQTGCWSPDGSRLLFTVLGEPLIYSLSFPERCGEGKGCVGGAKSATIVADLSETTIQTPDGEERLGGEAHSMVWDPSGERLAVLMKGKPRVQDGKPVILLFRTRNSPVFELLPCGIIQGEPGAQPQLITFHPSFNKGALLSVGWSTGRIAHIPLYFVNAQFPRFSPVLGRAQEPPAGGGGSIHDLPLFTETSPTSAPWDPLPGPPPVLPHSPHSHL
# Target: T1, FLAG-tagged TMEM18
# Test: affinity purification with mass spectrometry
row,Binder,binding
1,B1,binds
2,B2,binds
3,B3,binds

# No constants are given. Whether binding was seen depends on the method and setting. In cells and extracts the contact can be indirect. These calls come from enrichment with a bait or labelling near it, and not all partners need be listed. Sequences can lack the tags named with a protein.
